Here are results for one molecule from paper doi:10.64898/2025.12.15.694443.

Results are given in words; binding and its absence hold for the method and conditions named. Sequences can lack the tags named with a protein.

The test addresses ARAF kinase domain (his6-ARAF^282-579) (UniProt P10398). Description: SEC. Background: Size exclusion chromatography separates by hydrodynamic size, large species first.

B1: ARAF kinase domain (his6-ARAF^282-579) (domain or fragment, UniProt P10398 282-579)
chain: KSLADDKKKVKNLGYRDSGYYWEVPPSEVQLLKRIGTGSFGTVFRGRWHGDVAVKVLKVSQPTAEQAQAFKNEMQVLRKTRHVNILLFMGFMTRPGFAIITQWCEGSSLYHHLHVADTRFDMVQLIDVARQTAQGMDYLHAKNIIHRDLKSNNIFLHEGLTVKIGDFGLATVKTRWSGAQPLEQPSGSVLWMAAEVIRMQDPNPYSFQSDVYAYGVVLYELMTGSLPYSHIGCRDQIIFMVGRGYLSPDLSKISSNCPKAMRRLLSDCLKFQREERPLFPQILATIELLQRSLPKIER
Consider B1, for which the binding result is recorded as “no binding”.
